Experimental data as given in PubChem BioAssay AID1347076 (National Center for Advancing Translational Sciences (NCATS), 2019).
In all, about 400,000 compounds went through this assay and about 13,000 (3.2%) were called active. This list was built around the results that the source calls inconclusive (neither active nor inactive); the mix of calls is not that of the screen. Calls come from the whole dose curve; as a rule, active = well fitted cell-killing curve with a large enough effect; inconclusive = small, poorly fitted or top-dose-only effect, or effect the other way; inactive = flat fitted curve, though single readings scatter. Potencies beside an inconclusive call are fits to weak or partial responses and may not hold up.

assay: qHTS assay for MDR1-selective chemotherapeutics: Primary screen using the drug-selected MDR subline cells KB-V1; conditions: KB-V1 MDR cells viability, CellTiter-Glo, 72 h; activity change, negative = cytotoxicity: at 46.1 µM (top of the series); note: nearly all actives have a fitted effect of over 60% in size
In short: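 Cytotoxicity toward P-gp-expressing KB-V1 cells was determined as loss of CellTiter-Glo luminescence after 72 h at 37 degrees C. Compounds were tested in quantitative HTS format across a concentration range, with curves fitted to normalized data.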
% is set by controls: 0 for no effect and ±100 for the full control effect; potency is the fitted concentration of half-maximal effect.

| SMILES | Potency | activity change, negative = cytotoxicity |
| --- | --- | --- |
| Cc1ccc(S(=O)(=O)N(C)CC(=O)NCCc2c[nH]c3ccccc23)cc1 | inconclusive: 6.51 µM [cytotoxic, partial curve] | – |
| COc1ccc2c(CNCCc3ccco3)c(C(=O)O)n(Cc3ccc(C)cc3)c2c1 | inconclusive: 4.61 µM [rising, partial curve, poor fit] | – |
| COC(=O)c1ccc(Oc2nc(Nc3ccccc3)nc(N(C)C)n2)cc1 | active: 14.6 µM | – |
| C=CCS/C(N)=N\N=C\c1cc(Br)cc([N+](=O)[O-])c1O | inactive | – |
| CCOC(=O)[C@]12Cc3c(cc(OC)c(OC)c3OC)[C@H]1N(Cc1ccccc1)C(=O)c1cc(F)c(F)cc12 | inconclusive: 29.1 µM [cytotoxic, single point] | – |
| Cc1csc(NC(=O)CSc2nnc(C)s2)n1 | inconclusive: 6.51 µM [rising, full curve] | – |
| COc1ccc(NC(=O)c2oc3ccccc3c2C)c(OC)c1 | active: 20.6 µM | – |
| CCOC(=O)C1=C(COC(=O)COc2ccccc2OCC)NC(=O)NC1C (configuration not stated) | inactive | – |
| COc1ccc(Br)c(Cn2c(C)c(C(=O)NCc3cccs3)sc2=O)c1 | inconclusive: 20.6 µM [cytotoxic, partial curve, poor fit] | – |
| Cc1ccc(NC(=O)c2c(C)oc3ccc(O)c(CN4CCN(Cc5ccccc5)CC4)c23)cc1 | inactive | – |
| Cc1ccc(-n2nc(C(=O)N(C)c3ccc(C)c(C)c3)c3c4ccccc4n(C)c3c2=O)cc1 | inactive | – |
| CCOC(=O)CN1C(=O)N(c2ccc(C)c(C)c2)S(=O)(=O)c2ccccc21 | inconclusive: 29.1 µM [cytotoxic, single point] | – |
| Cc1ccc(CN2CCC(CNC(=O)c3cnn(-c4ccc(C)cc4)c3C3CCN(C(=O)OC(C)(C)C)CC3)CC2)cc1 | inconclusive: 32.6 µM [cytotoxic, single point] | – |
| O=C(O)c1ccc2c(c1)C(=O)N(c1cccc3ccccc13)C2=O | inconclusive: 16.4 µM [rising, single point] | – |
| O=C(c1cc(Br)c(Br)s1)N1CCOCC1 | inconclusive: 0.82 µM [rising, partial curve] | – |
| Cc1nc(N2CCN(S(=O)(=O)c3ccc(F)cc3)CC2)c2c(-c3cccs3)csc2n1 | inconclusive: 20.6 µM [cytotoxic, single point] | – |
| COc1ccc(NC(=O)c2oc3ccccc3c2NC(=O)C2CC2)cc1 | active: 10.3 µM | – |
| O=C(c1ccc(S(=O)(=O)Cc2cc(F)ccc2F)c([N+](=O)[O-])c1)N1CCOCC1 | inactive | – |
| COc1ccc(-c2ccc3[nH]c4c(c3c2)CCN2C(=O)[C@@H]([C@H](C)O)[C@@H](N(C)C(=O)Nc3cc(Cl)cc(Cl)c3)C[C@@H]42)cc1 | inactive | – |
| Cc1ccc(NS(=O)(=O)c2ccc3c(c2)NC(=O)CCS3)c(Cl)c1 | inconclusive: 23.1 µM [cytotoxic, partial curve, poor fit] | – |
| Brc1ccc(-c2nn3c(-c4ccccn4)nnc3s2)o1 | active: 18.4 µM | – |
| CCc1ccc(C(=O)NCc2cnn(C)c2)s1 | inconclusive: 2.59 µM [rising, full curve, poor fit] | – |
| NS(=O)(=O)c1ccc(CCNC(=O)CN2CCCCC2)cc1 | inconclusive: 13 µM [rising, partial curve, poor fit] | – |

A draw from above in order of SMILES length, largest number first:

| SMILES | Potency | activity change, negative = cytotoxicity |
| --- | --- | --- |
| Cc1nc(N2CCN(S(=O)(=O)c3ccc(F)cc3)CC2)c2c(-c3cccs3)csc2n1 | inconclusive: 20.6 µM [cytotoxic, single point] | – |
| COC(=O)c1ccc(Oc2nc(Nc3ccccc3)nc(N(C)C)n2)cc1 | active: 14.6 µM | – |
| NS(=O)(=O)c1ccc(CCNC(=O)CN2CCCCC2)cc1 | inconclusive: 13 µM [rising, partial curve, poor fit] | – |
| CCc1ccc(C(=O)NCc2cnn(C)c2)s1 | inconclusive: 2.59 µM [rising, full curve, poor fit] | – |

One compound at a time (already shown). Values in the order: Potency | activity change, negative = cytotoxicity
`C=CCS/C(N)=N\N=C\c1cc(Br)cc([N+](=O)[O-])c1O` as listed: inactive | –
`Cc1ccc(NC(=O)c2c(C)oc3ccc(O)c(CN4CCN(Cc5ccccc5)CC4)c23)cc1` as listed: inactive | –

Following part.

| SMILES | Potency | activity change, negative = cytotoxicity |
| --- | --- | --- |
| CCc1ccccc1NC(=O)c1sc2nc(C)cc(C)c2c1N | inconclusive: 0.206 µM [cytotoxic, full curve] | – |
| ClCc1nc2ccccc2c2ccccc12 | inconclusive: 18.4 µM [cytotoxic, partial curve, poor fit] | – |
| COc1cccc(-c2cc(C(=O)N3CCN(S(=O)(=O)c4ccccc4)CC3)[nH]n2)c1 | inconclusive: 13 µM [cytotoxic, partial curve, poor fit] | – |
| COc1ccc(CSc2ncnc3sccc23)cc1F | inconclusive: 29.1 µM [cytotoxic, single point] | – |
| Cc1cc(-c2nnc(CCC(=O)N(CC3CCC3)CC3CCCO3)o2)no1 (configuration not stated) | inconclusive: 0.0046 µM [cytotoxic, full curve, poor fit] | – |
| Cc1c(Cc2ccccc2)sc(/N=C/c2ccc3ccccc3c2)c1C(N)=O | active: 0.92 µM | – |
| CC1c2cc3c(cc2CCN1C(=O)c1ccc(Br)cc1)OCCCO3 (configuration not stated) | inconclusive: 18.4 µM [cytotoxic, partial curve] | – |
| Cc1ccccc1OCC(=O)NCC(c1cccs1)N1CCOCC1 (configuration not stated) | active: 16.4 µM | – |
| COc1ccc(Cl)cc1C(=O)CSc1nnnn1C1CCCCC1 | inconclusive: 16.4 µM [cytotoxic, partial curve] | – |
| COc1ccc2oc(=Nc3cc(F)ccc3F)c(C(N)=O)cc2c1 | inconclusive: 6.51 µM [cytotoxic, partial curve] | – |
| Cc1cccc(NC(=O)COc2cccc3c2CCN(C)C3=O)c1C | inconclusive: 7.31 µM [cytotoxic, partial curve] | – |
| Cn1cnc2ccc([N+](=O)[O-])cc2c1=O | inconclusive: 29.1 µM [rising, single point] | – |
| COc1cc(/C=C/c2ccc3cccc(OC)c3n2)c(OC(C)=O)c([N+](=O)[O-])c1 | inconclusive: 4.11 µM [cytotoxic, full curve] | – |
| O=C(NCC1CC1)c1ccc2sc([C@@H]3O[C@H](CO)[C@H](O)[C@H](O)[C@H]3O)nc2c1 | inactive | – |
| CCn1c(SCC(=O)Nc2ccc(N3CCOCC3)cc2)nnc1-c1ccc(OC)cc1 | active: 16.4 µM | – |
| O=C(CNC(=O)C1COc2ccccc2O1)Nc1cc(Cl)ccc1Cl (configuration not stated) | inconclusive: 29.1 µM [cytotoxic, single point] | – |
| CCOC(=O)C1CCN(C(=O)c2cnn(-c3ccc(F)cc3)c2-n2cccc2)CC1 | inconclusive: 18.4 µM [cytotoxic, partial curve] | – |
| CN(CC(=O)Nc1ccc(F)cc1F)S(=O)(=O)c1cccc2nsnc12 | inactive | – |
| CNC(=S)N1CCC(NC(=O)C(Cc2ccccc2)NC(C)=O)CC1 (configuration not stated) | inconclusive: 9.2 µM [rising, partial curve] | – |
| COc1ccc(-c2noc(CSc3nnc(Cc4ccccc4)n3-c3ccc(F)cc3)n2)cc1 | inconclusive: 16.4 µM [cytotoxic, single point] | – |
| CN(C)S(=O)(=O)c1cccc(NC(=O)COc2ccc(C(=O)c3ccccc3)cc2)c1 | inconclusive: 13 µM [cytotoxic, partial curve] | – |
| Cc1ccc(NC(=O)c2csc3c2CCCC3)cc1 | inconclusive: 29.1 µM [cytotoxic, partial curve, poor fit] | – |
| COc1ccc(C(=O)Nc2nc3c(s2)Cc2c(Br)ccc(OC)c2-3)cc1OC | inactive | – |

| SMILES | Potency | activity change, negative = cytotoxicity |
| --- | --- | --- |
| CCOc1ccccc1NC(=S)NC(=O)CCCOc1ccc(Cl)cc1Cl | inactive | – |
| CCCCNC(=O)C(NC(=O)c1cccnc1)C(=O)c1ccccc1 (configuration not stated) | inactive | – |
| COc1ccc(OCC(=O)Nc2c(C)ccc3nsnc23)cc1 | inactive | – |
| Cn1c2ccccc2c2cc(/C=N/NC(=O)c3cc(O)cc(O)c3)ccc21 | – | inconclusive: -4.08% |
| COc1ccc(S(=O)(=O)N2CCCCCC2)cc1C(=O)N(C)CC(=O)Nc1c(Cl)cccc1Cl | inconclusive: 20.6 µM [cytotoxic, single point] | – |
| COc1ccc(C(C)(O)c2nc(-c3ccccc3OC)cs2)cc1 (configuration not stated) | inconclusive: 20.6 µM [cytotoxic, single point] | – |
| O=C(NCc1ccc2c(c1)OCO2)c1ccco1 | inactive | – |
| Cc1ccc(-c2noc(C3CCCN(C(=O)c4ccc(Cl)cc4)C3)n2)o1 (configuration not stated) | inconclusive: 18.4 µM [cytotoxic, single point] | – |
| CC1=C(C(=O)N(C)C)CC(CC(=O)NCCCCc2ccccc2)C(=O)N1Cc1ccccc1 (configuration not stated) | inconclusive: 18.4 µM [cytotoxic, single point] | – |
| CCCCn1c(SCc2nc3ccccc3s2)nc2ccccc2c1=O | inconclusive: 2.59 µM [cytotoxic, full curve, poor fit] | – |
| Cc1nc(C)n(C(C)CNS(=O)(=O)c2ccc(C)c(C)c2)n1 (configuration not stated) | inconclusive: 23.1 µM [rising, partial curve] | – |
| COc1ccc(CNC(=O)CCCn2ccc3cc(S(=O)(=O)N4CCCC4)ccc32)cc1 | inconclusive: 16.4 µM [cytotoxic, single point] | – |
| CCN(CC)S(=O)(=O)c1cc(NC(=O)c2ccc(Br)s2)ccc1C | inconclusive: 7.31 µM [cytotoxic, partial curve] | – |
| CC1(C)Cc2ccccc2C2=NNC(=O)C2=N1 | inconclusive: 29.1 µM [cytotoxic, single point] | – |
| O=C(NCCOc1ccccc1)c1cc([N+](=O)[O-])ccc1N1CCOCC1 | inconclusive: 20.6 µM [cytotoxic, single point] | – |
| COc1ccc(CCNC(=O)C2CCCN2S(=O)(=O)c2ccc(F)cc2)cc1OC (configuration not stated) | inconclusive: 23.1 µM [cytotoxic, partial curve, poor fit] | – |
| CC(C)OC(=O)C1=C(N)N2C(=O)CSC2=C(C(=O)OC(C)C)C1 | inactive | – |
| C[C@H](CO)N1C[C@H](C)[C@@H](CN(C)C(=O)NC2CCCCC2)Oc2c(NC(=O)Nc3ccc4c(c3)OCO4)cccc2C1=O | inactive | – |
| N#Cc1ccc(-c2csc(NC(=O)c3ccc(S(=O)(=O)N4CCc5ccccc5C4)cc3)n2)cc1 | inconclusive: 0.651 µM [cytotoxic, partial curve, poor fit] | – |
| CCNC(=O)NC(=O)C(C)Sc1nc2ccccc2n1CC(C)C (configuration not stated) | inconclusive: 23.1 µM [cytotoxic, partial curve] | – |
| CC(C)(C)c1cc(C(=O)NCC(=O)OCC(=O)c2cccc([N+](=O)[O-])c2)cc(C(C)(C)C)c1 | inconclusive: 16.4 µM [rising, single point] | – |
